Drawing on US4045433A, “1,3,4,5-Tetrahydro-2H-1,4-benzodiazepin-2-ones” (priority 1974, dated 1977), this text covers TD50 and LD50 for 1 compound.

As a reminder, the LD50 is the dose at which mortality reaches 50%. A high value points to lower toxicity.

Holding throughout (set-up): species or system CFLP mice
Data set [1] is described as follows: Rotarod test (muscle incoordination and ataxia). The settings on record: mouse, in vivo, po, 1 hour before test; 12/min., 120 sec.; read-out: Rotarod test ED50. The protocol: a. Rotarod test: The test was carried out according to the method of Kinnard and Carr (Brit. J. Pharmacol. Exp. Ther. 121, 354 (1957)). The control animals were able to stay for 120 sec. on a rod rotated with a frequency of 12/min. The ED50 values were calculated from the percentage of the animals falling down within 120 sec.
In general terms: Falling from the rotarod earlier than controls is read as motor impairment.

A short description of data set [2]: Traction test (muscle incoordination and ataxia). Particulars: mouse, in vivo, po, 1 hour before test; read-out: Traction test ED50. The method, then: b. Traction test: The test was carried out according to the method of Theobald et al. (Arch. int. Pharmacodyn. 148, 560 (1964)). The two anterior limbs of the test animals were placed onto a horizontal rod so as to let the animals clutch the rod. The control animals pulled their hind limbs onto the rod within 5 seconds. The ED50 values were calculated from the percentage of the animals showing negative response.

A short description of a further data set: Acute toxicity. The settings on record: mouse, in vivo, po; death rate observed for one week.

Structures are written as SMILES.

For the compound `CN1C(=O)CN=C(c2ccccc2)c2cc(Cl)ccc21` [Diazepam], the TD50 at 1 h in data set [1] is 3.1 mg/kg; in data set [2], 4.4 mg/kg. This compound showed an LD50 at 168 h in the data set “Acute toxicity” of 815 mg/kg.
